Assay results published in paper PMC6005420, “A low-complexity region in the YTH domain protein Mmi1 enhances RNA binding”.
Results are given in words; binding and its absence hold for the method and conditions named.

Biological target: Mmi1 USR-YTH (residues 282-488) (Schizosaccharomyces pombe) (UniProt O74958)
Assay: SEC-MALS; 100 ul of purified sample at 10 mg/ml on Superdex 75 increase 10/300gl, 0.5 ml/min; both purified

binding: no binding (tested: 10 mg/ml)
B1: Mmi1 USR-YTH (residues 282-488) (domain or fragment, UniProt O74958 282-488)
chain: GAYPEKSSYLLSNSSNDSASRKEKPKARASTPPPLNFSRASEHRNEKGERISMINPRVVLDENGISHRSRYFIMLCDNETAIAHAKKTSIWAVKKDSSKRISDAYKKASVYFIFVAQQTYNALGYAQVVSDLNSTELPFWSDSSHAGGVRIKWIKTCNLFSAEISEIVSHMDHGSEARDGMEMMYDEGSRLCTLINYAIMKRIGRDR
